# Reference: PubChem BioAssay AID1347076 (National Center for Advancing Translational Sciences (NCATS), 2019)
# The whole screen tested about 400,000 compounds, of which about 13,000 (3.2%) were called active. This list was built around the results that the source calls inconclusive (neither active nor inactive); the mix of calls is not that of the screen. Calls come from the whole dose curve; as a rule, active = well fitted cell-killing curve with a large enough effect; inconclusive = small, poorly fitted or top-dose-only effect, or effect the other way; inactive = flat fitted curve, though single readings scatter. A potency beside an inconclusive call is a rough fit, not a confirmed value.
# Assay: qHTS assay for MDR1-selective chemotherapeutics: Primary screen using the drug-selected MDR subline cells KB-V1; note: nearly all actives have a fitted effect of over 60% in size
# Conditions: KB-V1 MDR cells viability, CellTiter-Glo, 72 h; activity change, negative = cytotoxicity: at 46.1 µM (top of the series)
# Outline: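 In this primary screen, KB-V1 cells overexpressing P-gp are incubated with library compounds (lowest to highest concentration) for 72 h at 37 degrees C before a luminescent ATP viability read.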
# % is set by controls: 0 for no effect and ±100 for the full control effect; potency is the fitted concentration of half-maximal effect.
Compound,Potency,"activity change, negative = cytotoxicity"
C[C@H](CO)N1C[C@H](C)[C@@H](CN(C)CC2CC2)Oc2c(NC(=O)Cc3ccccc3)cccc2C1=O,"inconclusive: 29.1 µM [cytotoxic, partial curve, poor fit]",
Cc1ccc(/C=C/C(=O)N2CCN(c3ccc(F)cc3)CC2)o1,active: 18.4 µM,
O=Cc1nc(-c2ccccc2Cl)n2ccccc12,inactive,
O=c1c2ccccc2nc(SCc2cc(F)ccc2F)n1C1CCCC1,"inconclusive: 29.1 µM [cytotoxic, single point]",
O=C1CCN(Cc2ccc(O)cc2)CCN1CCO,inactive,
CC(C)(C)c1ccc(-c2noc(CCC(=O)NCC3CCCO3)n2)cc1 (stereo not given),"inconclusive: 25.9 µM [cytotoxic, partial curve, poor fit]",
O=C(Nc1ccc(OCc2cc(=O)n3ccsc3n2)cc1)c1ccc(F)cc1,"inconclusive: 29.1 µM [rising, single point]",
O=C(N[C@@H]1C/C=C\C[C@@H](CC(=O)N(CCO)Cc2ccccc2)C(=O)NC[C@H](c2ccccc2)OC1=O)OCC1c2ccccc2-c2ccccc21,"inconclusive: 0.461 µM [rising, full curve, poor fit]",
O=c1[nH]c(-c2ccc(Cl)cc2)nc(=S)[nH]1,inactive,
COc1ccc(Cc2noc(CN3CCCN(Cc4ccc(F)cc4)CC3)n2)cc1OC,"inconclusive: 0.517 µM [cytotoxic, full curve, poor fit]",
COc1ccc(-c2noc(CSc3nnc(CCc4ccccc4)n3-c3ccccc3)n2)cc1OC,active: 23.1 µM,
Cc1cc(C)c2c(=O)cc(C(=O)Nc3ccc(C)c(Cl)c3)oc2c1,inactive,
COc1cccc(/C=C/C(=O)N2CCN(c3n[nH]c(=O)[nH]c3=O)CC2)c1OC,"inconclusive: 5.17 µM [rising, full curve]",
COc1cc(S(=O)(=O)N2CCN(c3ccccn3)CC2)ccc1Br,"inconclusive: 18.4 µM [cytotoxic, single point]",
CCCc1ccc(S(=O)(=O)N2CCN(C(C)C(=O)NC3CCCC3)CC2)cc1 (stereo not given),inactive,
COc1cccc(N2CCN(C(=O)c3oc4ccccc4c3NC(=O)CCc3cc(OC)no3)CC2)c1,inactive,
COc1cc(C#Cc2c(-c3cncn3C)n(C)c3ccc(-c4cnc(OC)nc4)cc23)cc(OC)c1,"inconclusive: 18.4 µM [cytotoxic, single point]",
NC(=O)C1CCN(C(=O)N2c3ccccc3Sc3ccccc32)CC1,inactive,
CCc1nnc(NC(=O)CSc2ccc(-c3nc4ccc(C)cc4[nH]3)cn2)s1,active: 7.31 µM,
CCOC(=O)c1sc2nc3n(c(=O)c2c1C)CCC(C)CC3 (stereo not given),inactive,
COc1ccc(NC(=O)C2CCN(C(=O)c3ccccc3)CC2)c(OC)c1,"inconclusive: 23.1 µM [cytotoxic, partial curve]",
CCOc1cccc2c1OC1(C)CC2NC(=O)N1c1cccc(Cl)c1 (stereo not given),"inconclusive: 3.26 µM [cytotoxic, full curve]",
COC(=O)c1cccc(N2C(=O)c3cccnc3C2=O)c1,"inconclusive: 29.1 µM [rising, single point]",
CC1(C(=O)Nc2ccc3c(c2)OCO3)Cc2c(-c3ccc4c(c3)OCO4)ccnc2O1 (stereo not given),"inconclusive: 5.8 µM [cytotoxic, full curve]",

Compound,Potency,"activity change, negative = cytotoxicity"
Nn1cnc2cc3ccccc3cc2c1=O,inactive,
COc1ccc(Nc2nc(N)c(C(=O)c3ccc(OC)cc3)s2)cc1,"inconclusive: 1.3 µM [cytotoxic, full curve, poor fit]",
O=C1CCC(c2ccc(-n3ccnc3)cc2)=NN1,"inconclusive: 0.731 µM [cytotoxic, full curve]",
OCC1(CCOc2ccccc2)CCN(CC2=Cc3cc(Cl)ccc3OC2)CC1,inactive,
Cc1ccc(-n2ncc3c(N4CCCCC4)ncnc32)cc1Cl,"inconclusive: 16.4 µM [rising, partial curve]",
COc1ccc2cc(C(=O)C3CCCN(C(=O)/C=C/c4ccccn4)C3)ccc2c1 (stereo not given),"inconclusive: 13 µM [cytotoxic, partial curve, poor fit]",
CCc1cccc(C)c1NC(=O)c1cc(S(=O)(=O)N(C)Cc2ccccc2)ccc1F,"inconclusive: 29.1 µM [cytotoxic, single point]",
CCc1ccc(-c2cc(C)no2)cc1S(=O)(=O)Nc1cc(C)on1,"inconclusive: 18.4 µM [rising, single point]",
COc1cc(CNCCN(C)C)c(Br)cc1OC1CCCC1,"inconclusive: 16.4 µM [cytotoxic, partial curve]",
COc1cc2cc(C(c3nnnn3C3CCCCC3)N(C)C3CCCCC3)c(=O)[nH]c2cc1OC (stereo not given),active: 23.1 µM,
Cc1cccc(Nc2nc(N)nc(CN3CCN(Cc4ccc5c(c4)OCO5)CC3)n2)c1,active: 14.6 µM,
C/C(=N\O)C(C)(C)Nc1ccc(Cl)cc1,"inconclusive: 29.1 µM [rising, single point]",
COCCn1c(=NC(=O)/C=C/c2ccccc2)sc2cc(NC(C)=O)ccc21,"inconclusive: 1.84 µM [cytotoxic, full curve, poor fit]",
COc1cccc(NC(=O)c2nnn(CCc3ccccc3)c2N)c1,"inconclusive: 25.9 µM [cytotoxic, partial curve, poor fit]",
COc1ccc(CN(C)C(=O)CCN(c2ccccc2)S(=O)(=O)c2ccc(C)cc2)c(OC)c1,"inconclusive: 6.51 µM [cytotoxic, full curve]",
COCC(C)n1c(C)cc(C(=O)COC(=O)CNC(=O)c2ccccc2)c1C (stereo not given),"inconclusive: 29.1 µM [rising, single point]",
COc1ccc(-c2cc(C(F)(F)F)nc(SCC(=O)N3CC(C)OC(C)C3)n2)cc1OC (stereo not given),"inconclusive: 1.16 µM [cytotoxic, full curve, poor fit]",
Cc1ccc(-c2nc(N)sc2-c2ccc(C)cc2)cc1,"inconclusive: 20.6 µM [cytotoxic, single point]",
S=C(NCc1ccco1)N1CCN(c2ccccn2)CC1,inactive,
Cn1c2c(c3ccccc31)CCN(CCCCN1CCN(c3ccccc3)CC1)C2=O,active: 5.8 µM,
N#CC1=C2N=C(N)c3c(sc4c3CCCCC4)N2C2=C(C(=O)CCC2)C1c1ccccc1 (stereo not given),"inconclusive: 23.1 µM [cytotoxic, single point]",
COc1ccc(C(=O)c2cnc3cc4c(cc3c2C)OCO4)cc1,"inconclusive: 23.1 µM [cytotoxic, partial curve, poor fit]",
O=C(CCCN=C1NS(=O)(=O)c2ccccc21)OCC(=O)c1ccccc1Cl,inactive,
C=CCNc1nc(-c2sc(NC(C)=O)nc2C)cs1,"inconclusive: 23.1 µM [cytotoxic, single point]",

Compound,Potency,"activity change, negative = cytotoxicity"
CN(C)c1cc(-c2ccc(Cl)cc2)oc(=O)c1Cl,"inconclusive: 9.2 µM [cytotoxic, partial curve]",
CC(=O)c1c(C)[nH]c(C(=O)CSc2nnc(C3CCCCC3)n2N)c1C,inactive,
Cc1cccc(NC(=O)CN2C(=O)N/C(=C/c3cc(C)n(-c4ccncc4)c3C)C2=O)c1,"inconclusive: 20.6 µM [rising, partial curve, poor fit]",
CC(=O)Nc1ccc(S(=O)(=O)Nc2cccc(C(=O)Nc3ccccc3C(=O)O)c2)cc1,"inconclusive: 29.1 µM [rising, single point]",
Cc1cc(Nc2cccc([N+](=O)[O-])c2)c2cccc(C)c2n1,inactive,
COC(=O)CC1=C(C(=O)OC)C(c2cccs2)C(C#N)=C(N)O1 (stereo not given),inactive,
CCN(c1ccccc1)S(=O)(=O)c1ccc(Cl)c(NC(=O)CN(C)Cc2cccc(F)c2)c1,active: 16.4 µM,
CN(C)S(=O)(=O)c1ccc(C(=O)NNC(=O)C23CC4CC(CC(C4)C2)C3)cc1,"inconclusive: 18.4 µM [cytotoxic, single point]",
CCCn1c(=N)n(CC(=O)c2ccco2)c2ccccc21,"inconclusive: 11.6 µM [cytotoxic, partial curve, poor fit]",
Cc1ccc(C)c(NC(=O)CSc2nnc(CNC(=O)c3ccccc3)n2-c2ccccc2)c1,inactive,
COc1ccc(-c2nc(N)nc(C(F)(F)F)c2-c2ccccc2OC)c(O)c1,inactive,
O=C(Nc1nc(-c2cc(F)ccc2F)cs1)C1=COCCO1,"inconclusive: 29.1 µM [cytotoxic, single point]",
CC(C)(C)c1ccc(/C=N/NC(=S)NC2CCCCC2)cc1,"inconclusive: 20.6 µM [cytotoxic, single point]",
CC(C)n1c(/C=C/[C@@H](O)C[C@@H](O)CC(=O)O)c(-c2ccc(F)cc2)c2ccccc21,active: 18.4 µM,
Cn1c(=O)c2sccc2n2c(CCCC(=O)Nc3ccc(Cl)cc3)nnc12,inactive,
CO/N=C/NC(=O)c1c(OC)ccnc1Oc1ccc(F)cc1,"inconclusive: 0.0065 µM [cytotoxic, full curve]",
CCC(=O)Nc1ccccc1-c1nc2ccccc2n(Cc2cccc(Br)c2)c1=O,inactive,
O=C(c1ccc(CS(=O)(=O)c2cccc(C(F)(F)F)c2)o1)N1CCN(c2ccccn2)CC1,active: 18.4 µM,
CC(C)c1ccc(NC(=S)N2CCN(S(=O)(=O)c3ccccc3)CC2)cc1,,inconclusive: -29.5%
COc1cc(C#CC#CCN2CCCCC2)ccc1O,active: 10.3 µM,
CCOc1ccc2nc(NC(=O)C3CCCN(S(=O)(=O)c4cccc5nonc45)C3)sc2c1 (stereo not given),"inconclusive: 23.1 µM [cytotoxic, partial curve]",
O=C(O)CC1(CC(=O)Nc2cccc(C(=O)O)c2)CCCC1,inactive,

# Rewritten with tabs: part of the list above.
Compound	Potency	activity change, negative = cytotoxicity
O=C1CCN(Cc2ccc(O)cc2)CCN1CCO	inactive	
Cc1cc(C)c2c(=O)cc(C(=O)Nc3ccc(C)c(Cl)c3)oc2c1	inactive	
N#CC1=C2N=C(N)c3c(sc4c3CCCCC4)N2C2=C(C(=O)CCC2)C1c1ccccc1 (stereo not given)	inconclusive: 23.1 µM [cytotoxic, single point]	
COc1cc(C#CC#CCN2CCCCC2)ccc1O	active: 10.3 µM	
